Reference: the supplement of paper PMC6411743
± gives the standard deviation of the averaged measurements. The entries are a selection whose mix differs from that of the whole data set.

By UniProt entry, the sequences of proteins in these tests, tags left out. Where a name states a change or a piece, a line headed by the entry shows the natural chain unless it says otherwise.
UniProt O75843: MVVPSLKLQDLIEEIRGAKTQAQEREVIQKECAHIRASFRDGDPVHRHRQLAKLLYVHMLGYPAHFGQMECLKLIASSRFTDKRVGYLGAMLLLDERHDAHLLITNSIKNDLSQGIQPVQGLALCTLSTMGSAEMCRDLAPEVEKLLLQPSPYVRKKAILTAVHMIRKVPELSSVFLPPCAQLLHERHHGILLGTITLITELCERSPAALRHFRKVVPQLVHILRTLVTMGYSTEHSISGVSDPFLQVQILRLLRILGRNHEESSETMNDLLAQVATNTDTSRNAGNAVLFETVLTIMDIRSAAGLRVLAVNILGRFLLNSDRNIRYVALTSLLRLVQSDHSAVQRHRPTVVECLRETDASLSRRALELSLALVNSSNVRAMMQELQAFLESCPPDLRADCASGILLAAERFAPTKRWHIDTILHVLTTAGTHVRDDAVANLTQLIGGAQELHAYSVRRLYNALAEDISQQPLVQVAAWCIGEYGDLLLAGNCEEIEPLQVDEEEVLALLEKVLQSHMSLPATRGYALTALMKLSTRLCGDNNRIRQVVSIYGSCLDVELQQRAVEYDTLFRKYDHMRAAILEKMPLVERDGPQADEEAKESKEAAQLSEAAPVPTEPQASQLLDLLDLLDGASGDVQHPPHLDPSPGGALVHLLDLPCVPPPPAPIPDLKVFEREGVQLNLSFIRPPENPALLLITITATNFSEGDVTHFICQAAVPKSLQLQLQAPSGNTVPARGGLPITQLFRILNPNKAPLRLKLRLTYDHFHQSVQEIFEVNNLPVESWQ
UniProt Q9BRQ6: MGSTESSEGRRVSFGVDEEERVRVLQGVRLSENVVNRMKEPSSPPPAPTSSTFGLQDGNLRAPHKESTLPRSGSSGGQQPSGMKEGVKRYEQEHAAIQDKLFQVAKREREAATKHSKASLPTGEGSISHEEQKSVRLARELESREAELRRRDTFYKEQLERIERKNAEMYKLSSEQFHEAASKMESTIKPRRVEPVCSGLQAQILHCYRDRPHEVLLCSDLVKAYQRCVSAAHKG
UniProt P49815: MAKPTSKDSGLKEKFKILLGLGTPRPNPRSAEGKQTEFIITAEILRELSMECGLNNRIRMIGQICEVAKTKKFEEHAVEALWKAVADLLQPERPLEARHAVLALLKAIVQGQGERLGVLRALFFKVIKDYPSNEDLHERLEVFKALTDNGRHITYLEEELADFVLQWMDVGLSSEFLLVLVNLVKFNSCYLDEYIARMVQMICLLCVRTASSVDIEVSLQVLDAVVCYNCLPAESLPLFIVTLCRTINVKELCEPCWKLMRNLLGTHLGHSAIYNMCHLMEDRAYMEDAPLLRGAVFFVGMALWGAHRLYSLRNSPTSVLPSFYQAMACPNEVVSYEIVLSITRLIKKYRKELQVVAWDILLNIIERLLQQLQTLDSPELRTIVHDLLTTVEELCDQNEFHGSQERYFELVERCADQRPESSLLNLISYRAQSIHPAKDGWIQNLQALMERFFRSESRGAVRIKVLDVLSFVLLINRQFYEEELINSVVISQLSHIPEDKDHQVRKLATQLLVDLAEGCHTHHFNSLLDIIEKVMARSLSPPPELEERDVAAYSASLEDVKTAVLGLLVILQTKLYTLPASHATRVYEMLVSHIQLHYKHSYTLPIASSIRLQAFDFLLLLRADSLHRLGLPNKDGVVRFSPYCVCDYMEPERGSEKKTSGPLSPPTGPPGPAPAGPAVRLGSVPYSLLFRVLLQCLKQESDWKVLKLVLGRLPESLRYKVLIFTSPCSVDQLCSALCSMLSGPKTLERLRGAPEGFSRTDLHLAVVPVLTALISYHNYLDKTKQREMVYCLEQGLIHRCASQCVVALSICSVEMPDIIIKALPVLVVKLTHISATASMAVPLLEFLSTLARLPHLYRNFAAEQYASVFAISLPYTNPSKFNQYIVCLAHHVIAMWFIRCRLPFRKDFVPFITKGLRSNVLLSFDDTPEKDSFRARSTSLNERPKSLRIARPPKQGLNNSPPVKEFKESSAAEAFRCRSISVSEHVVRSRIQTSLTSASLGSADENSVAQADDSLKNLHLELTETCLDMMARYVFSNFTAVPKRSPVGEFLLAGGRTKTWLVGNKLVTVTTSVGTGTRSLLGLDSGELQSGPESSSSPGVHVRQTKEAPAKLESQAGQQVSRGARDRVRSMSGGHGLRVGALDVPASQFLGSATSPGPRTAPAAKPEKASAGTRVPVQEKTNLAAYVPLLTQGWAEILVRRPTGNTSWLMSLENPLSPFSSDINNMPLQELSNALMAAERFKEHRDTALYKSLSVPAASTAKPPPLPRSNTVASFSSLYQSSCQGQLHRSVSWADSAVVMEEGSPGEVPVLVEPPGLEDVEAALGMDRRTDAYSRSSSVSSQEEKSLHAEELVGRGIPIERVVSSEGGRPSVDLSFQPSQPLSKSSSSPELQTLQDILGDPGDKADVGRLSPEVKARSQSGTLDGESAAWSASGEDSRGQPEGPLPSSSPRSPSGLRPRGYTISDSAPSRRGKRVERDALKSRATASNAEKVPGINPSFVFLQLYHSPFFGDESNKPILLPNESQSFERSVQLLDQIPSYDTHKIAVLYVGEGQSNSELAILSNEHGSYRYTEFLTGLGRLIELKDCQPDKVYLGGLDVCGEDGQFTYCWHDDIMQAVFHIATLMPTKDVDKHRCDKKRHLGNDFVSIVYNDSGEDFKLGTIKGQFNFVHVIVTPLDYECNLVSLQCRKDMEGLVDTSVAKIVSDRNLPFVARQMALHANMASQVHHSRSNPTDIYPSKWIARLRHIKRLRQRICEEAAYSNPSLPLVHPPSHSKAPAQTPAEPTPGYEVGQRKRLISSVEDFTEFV
UniProt Q8NBZ0, whole entry: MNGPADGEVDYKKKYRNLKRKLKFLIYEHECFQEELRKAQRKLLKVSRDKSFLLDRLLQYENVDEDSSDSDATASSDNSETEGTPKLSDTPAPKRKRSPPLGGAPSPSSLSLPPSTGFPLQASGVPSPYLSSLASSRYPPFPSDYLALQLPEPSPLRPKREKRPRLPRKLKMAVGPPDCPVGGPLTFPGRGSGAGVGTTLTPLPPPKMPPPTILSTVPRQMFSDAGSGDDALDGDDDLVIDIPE
UniProt O43598: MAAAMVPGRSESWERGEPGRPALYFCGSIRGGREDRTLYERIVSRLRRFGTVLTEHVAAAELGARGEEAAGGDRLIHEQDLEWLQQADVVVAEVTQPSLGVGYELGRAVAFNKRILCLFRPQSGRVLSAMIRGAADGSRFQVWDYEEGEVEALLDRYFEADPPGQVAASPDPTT
UniProt O43502: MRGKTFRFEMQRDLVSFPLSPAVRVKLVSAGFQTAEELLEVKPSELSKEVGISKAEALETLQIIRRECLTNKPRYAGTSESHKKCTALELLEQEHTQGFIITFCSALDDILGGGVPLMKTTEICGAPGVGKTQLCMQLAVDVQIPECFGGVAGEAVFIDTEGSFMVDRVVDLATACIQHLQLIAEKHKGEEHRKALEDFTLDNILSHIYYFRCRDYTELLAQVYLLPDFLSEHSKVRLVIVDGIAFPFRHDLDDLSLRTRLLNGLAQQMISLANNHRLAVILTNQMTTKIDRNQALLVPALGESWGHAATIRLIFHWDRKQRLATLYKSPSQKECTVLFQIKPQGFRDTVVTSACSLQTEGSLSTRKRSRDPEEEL
UniProt O43670: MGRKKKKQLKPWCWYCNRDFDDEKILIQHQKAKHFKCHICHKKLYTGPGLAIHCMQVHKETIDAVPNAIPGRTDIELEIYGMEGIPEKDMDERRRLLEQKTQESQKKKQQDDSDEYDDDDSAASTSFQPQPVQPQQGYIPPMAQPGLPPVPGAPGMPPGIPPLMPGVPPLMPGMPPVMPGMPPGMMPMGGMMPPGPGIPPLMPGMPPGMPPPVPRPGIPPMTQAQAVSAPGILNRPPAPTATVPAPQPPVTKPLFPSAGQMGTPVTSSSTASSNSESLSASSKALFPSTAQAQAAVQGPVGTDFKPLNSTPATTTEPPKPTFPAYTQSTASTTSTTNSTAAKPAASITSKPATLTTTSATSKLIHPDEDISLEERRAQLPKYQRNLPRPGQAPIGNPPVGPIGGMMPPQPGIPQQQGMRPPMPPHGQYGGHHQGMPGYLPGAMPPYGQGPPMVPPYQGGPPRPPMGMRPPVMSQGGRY
UniProt Q15637: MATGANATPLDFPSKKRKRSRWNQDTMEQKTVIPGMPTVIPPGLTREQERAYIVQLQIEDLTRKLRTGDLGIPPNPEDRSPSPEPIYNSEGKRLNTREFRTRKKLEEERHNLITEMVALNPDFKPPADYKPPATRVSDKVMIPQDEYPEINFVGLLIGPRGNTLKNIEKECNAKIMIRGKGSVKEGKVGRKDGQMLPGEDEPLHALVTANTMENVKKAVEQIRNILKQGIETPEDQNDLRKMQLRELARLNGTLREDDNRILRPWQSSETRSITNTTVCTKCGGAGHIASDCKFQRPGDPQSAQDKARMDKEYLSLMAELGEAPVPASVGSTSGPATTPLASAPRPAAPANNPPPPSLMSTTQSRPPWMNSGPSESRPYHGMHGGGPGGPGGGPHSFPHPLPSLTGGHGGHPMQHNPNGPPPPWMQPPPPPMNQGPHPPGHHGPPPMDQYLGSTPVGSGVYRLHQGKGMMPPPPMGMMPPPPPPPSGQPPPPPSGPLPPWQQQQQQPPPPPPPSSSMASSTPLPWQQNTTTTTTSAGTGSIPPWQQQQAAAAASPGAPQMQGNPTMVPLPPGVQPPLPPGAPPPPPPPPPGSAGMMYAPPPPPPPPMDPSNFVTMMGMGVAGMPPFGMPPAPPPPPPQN
UniProt Q8WUD4: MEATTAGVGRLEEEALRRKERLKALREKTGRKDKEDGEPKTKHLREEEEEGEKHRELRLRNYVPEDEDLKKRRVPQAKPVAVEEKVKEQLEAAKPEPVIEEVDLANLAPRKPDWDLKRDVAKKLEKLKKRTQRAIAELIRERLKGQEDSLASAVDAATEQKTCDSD
UniProt Q96AX1: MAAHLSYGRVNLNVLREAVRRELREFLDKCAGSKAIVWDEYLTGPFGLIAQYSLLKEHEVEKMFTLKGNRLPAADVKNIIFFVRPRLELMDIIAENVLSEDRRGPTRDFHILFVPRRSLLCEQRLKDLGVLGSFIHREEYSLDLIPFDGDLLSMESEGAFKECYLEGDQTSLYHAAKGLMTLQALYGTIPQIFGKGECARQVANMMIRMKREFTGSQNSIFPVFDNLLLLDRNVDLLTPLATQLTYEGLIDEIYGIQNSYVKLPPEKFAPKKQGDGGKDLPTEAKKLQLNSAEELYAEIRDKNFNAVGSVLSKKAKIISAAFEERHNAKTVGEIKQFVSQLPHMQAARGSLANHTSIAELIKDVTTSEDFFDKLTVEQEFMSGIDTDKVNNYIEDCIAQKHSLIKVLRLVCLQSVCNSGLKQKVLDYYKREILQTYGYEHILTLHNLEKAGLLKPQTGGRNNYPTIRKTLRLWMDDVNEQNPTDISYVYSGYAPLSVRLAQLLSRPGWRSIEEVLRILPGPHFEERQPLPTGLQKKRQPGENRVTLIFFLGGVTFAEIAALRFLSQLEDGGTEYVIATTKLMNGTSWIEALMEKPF
UniProt Q15032: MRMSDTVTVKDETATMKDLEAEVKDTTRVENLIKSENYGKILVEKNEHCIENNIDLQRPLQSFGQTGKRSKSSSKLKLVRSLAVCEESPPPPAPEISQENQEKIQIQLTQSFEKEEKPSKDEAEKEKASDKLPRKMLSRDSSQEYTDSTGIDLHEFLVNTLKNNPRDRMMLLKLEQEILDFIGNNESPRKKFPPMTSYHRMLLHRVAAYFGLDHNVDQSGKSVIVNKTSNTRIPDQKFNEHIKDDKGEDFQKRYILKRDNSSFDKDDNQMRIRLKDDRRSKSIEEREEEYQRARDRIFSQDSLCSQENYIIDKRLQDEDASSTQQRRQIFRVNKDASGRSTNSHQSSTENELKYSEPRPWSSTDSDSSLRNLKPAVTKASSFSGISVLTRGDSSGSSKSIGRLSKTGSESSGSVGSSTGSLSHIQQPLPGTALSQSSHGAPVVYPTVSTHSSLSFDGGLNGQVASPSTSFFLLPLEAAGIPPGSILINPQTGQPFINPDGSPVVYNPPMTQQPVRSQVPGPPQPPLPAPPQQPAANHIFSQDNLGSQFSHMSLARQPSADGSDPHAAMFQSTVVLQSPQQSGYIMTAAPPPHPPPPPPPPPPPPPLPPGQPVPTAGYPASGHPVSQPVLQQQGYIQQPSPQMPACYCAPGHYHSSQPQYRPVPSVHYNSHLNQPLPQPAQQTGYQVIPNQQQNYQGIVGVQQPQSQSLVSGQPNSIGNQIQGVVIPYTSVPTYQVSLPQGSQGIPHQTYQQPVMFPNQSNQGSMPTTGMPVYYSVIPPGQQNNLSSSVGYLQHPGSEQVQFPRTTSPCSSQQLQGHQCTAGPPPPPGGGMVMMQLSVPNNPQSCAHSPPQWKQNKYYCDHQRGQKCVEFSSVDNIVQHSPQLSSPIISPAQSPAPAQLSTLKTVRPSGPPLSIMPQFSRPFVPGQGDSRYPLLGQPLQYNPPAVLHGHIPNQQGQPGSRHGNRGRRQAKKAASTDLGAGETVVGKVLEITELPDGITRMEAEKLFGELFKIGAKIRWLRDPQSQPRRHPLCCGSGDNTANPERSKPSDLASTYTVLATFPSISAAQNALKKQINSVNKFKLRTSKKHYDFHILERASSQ

Compound: Nc1ncnc2c1ncn2[C@@H]1O[C@H](COP(=O)(O)OP(=O)(O)NP(=O)(O)O)[C@@H](O)[C@H]1O [adenylyl imidodiphosphate]
Assay: NP40-soluble protein abundance relative to vehicle (solubility fold change) (ratio); higher = more soluble protein in presence of AMP-PNP
Method in brief: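 Jurkat crude lysate prepared with a Dounce homogeniser was treated at eight concentrations spanning 0.1 to 10 mM, 10 min at room temperature then 3 min at 37 °C. Solubilisation with 0.8% NP40 and benzonase and ultracentrifugation preceded TMT labelling of the supernatant for LC-MS/MS. Fold change against the detergent-processed vehicle was determined per replicate from vsn-normalised intensities, across three independent experiments.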

Target | NP40-soluble protein abundance (concentration: 1mM) | NP40-soluble protein abundance (concentration: 2mM) | NP40-soluble protein abundance (concentration: 4mM) | NP40-soluble protein abundance (concentration: 6mM) | NP40-soluble protein abundance (concentration: 8mM) | NP40-soluble protein abundance (concentration: 10mM)
G3V532 and related entries (UniProt O75843) | 0.964 ± 0.056 | 0.958 ± 0.0084 | 0.947 ± 0.05 | 0.928 ± 0.046 | 0.927 ± 0.068 | 0.901 ± 0.045
H3BPJ9 and related entries (UniProt O96000) | 0.93 ± 0.047 | 1.01 ± 0.029 | 0.915 ± 0.042 | 0.882 ± 0.027 | 0.884 ± 0.028 | 0.853 ± 0.032
J3QK89 and related entries (UniProt Q8IWX8) | 1.1 ± 0.038 | 1.16 ± 0.088 | 1.15 ± 0.043 | 1.2 ± 0.1 | 1.19 ± 0.089 | 1.25 ± 0.1
J3QTA6 and related entries (UniProt Q9BRQ6) | 0.998 ± 0.036 | 1.05 ± 0.052 | 0.966 ± 0.043 | 0.939 ± 0.057 | 0.95 ± 0.071 | 0.945 ± 0.056
H3BMQ0 and related entries (UniProt P49815) | 1 ± 0.022 | 1.01 ± 0.036 | 0.968 ± 0.011 | 0.933 ± 0.048 | 0.919 ± 0.037 | 0.916 ± 0.029
H3BNM4 and related entries (UniProt Q8NBZ0) | 1.02 ± 0.011 | 1.12 ± 0.053 | 0.986 ± 0.011 | 1.02 ± 0.015 | 0.9759 ± 0.0048 | 1.01 ± 0.038
H0Y8X4 and related entries (UniProt O43598) | 0.964 ± 0.042 | 0.992 ± 0.054 | 1.04 ± 0.042 | 1.07 ± 0.085 | 1.09 ± 0.043 | 1.11 ± 0.06
J3QKK3 and related entries (UniProt O43502) | 0.9837 ± 0.0043 | 1.01 ± 0.013 | 0.976 ± 0.0084 | 0.937 ± 0.042 | 0.933 ± 0.019 | 0.951 ± 0.031
G5E9Z2 and related entries (UniProt Q96KA5) | 1.02 ± 0.045 | 0.9986 ± 0.0074 | 1 ± 0.033 | 1.02 ± 0.039 | 1.01 ± 0.049 | 1.03 ± 0.046
J3QRS9 and related entries (UniProt O43670) | 1.09 ± 0.073 | 1.09 ± 0.087 | 1.15 ± 0.074 | 1.25 ± 0.065 | 1.29 ± 0.062 | 1.34 ± 0.1
H7C561 and related entries (UniProt Q15637) | 1.01 ± 0.038 | 1.09 ± 0.1 | 1.01 ± 0.061 | 1.02 ± 0.035 | 0.995 ± 0.018 | 1 ± 0.044
J3QQJ0 and related entries (UniProt Q9UHR5) | 0.975 ± 0.033 | 1.05 ± 0.13 | 0.989 ± 0.054 | 0.985 ± 0.048 | 0.985 ± 0.029 | 1.03 ± 0.03
J3KR35 and related entries (UniProt Q8WUD4) | 0.996 ± 0.087 | 1.06 ± 0.066 | 0.937 ± 0.097 | 0.953 ± 0.017 | 0.963 ± 0.025 | 0.937 ± 0.077
H3BMM5 and related entries (UniProt Q96AX1+H3BMM5) | 1.023 ± 0.0022 | 0.919 ± 0.05 | 0.992 ± 0.032 | 0.951 ± 0.022 | 0.977 ± 0.026 | 0.9517 ± 0.0062
H7C2F9 and related entries (UniProt Q15032) | 1.02 ± 0.035 | 1.04 ± 0.028 | 1.04 ± 0.021 | 0.997 ± 0.029 | 0.9737 ± 0.0079 | 1.022 ± 0.006

Not a retest: an excerpt of the list.
Target | NP40-soluble protein abundance (concentration: 1mM) | NP40-soluble protein abundance (concentration: 2mM) | NP40-soluble protein abundance (concentration: 4mM) | NP40-soluble protein abundance (concentration: 6mM) | NP40-soluble protein abundance (concentration: 8mM) | NP40-soluble protein abundance (concentration: 10mM)
J3QRS9 and related entries (UniProt O43670) | 1.09 ± 0.073 | 1.09 ± 0.087 | 1.15 ± 0.074 | 1.25 ± 0.065 | 1.29 ± 0.062 | 1.34 ± 0.1
H7C561 and related entries (UniProt Q15637) | 1.01 ± 0.038 | 1.09 ± 0.1 | 1.01 ± 0.061 | 1.02 ± 0.035 | 0.995 ± 0.018 | 1 ± 0.044
J3QQJ0 and related entries (UniProt Q9UHR5) | 0.975 ± 0.033 | 1.05 ± 0.13 | 0.989 ± 0.054 | 0.985 ± 0.048 | 0.985 ± 0.029 | 1.03 ± 0.03
J3KR35 and related entries (UniProt Q8WUD4) | 0.996 ± 0.087 | 1.06 ± 0.066 | 0.937 ± 0.097 | 0.953 ± 0.017 | 0.963 ± 0.025 | 0.937 ± 0.077
